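Genome-wide siRNA knockdown in TC32 Ewing sarcoma cells, comparing luciferase light from an NR0B1-promoter reporter with a CMV-promoter reporter 48 hours after transfection.
Each siRNA was applied at 20 nM.
A z-score of the log NR0B1-over-CMV signal, less the median of siRNAs with the same seed; more negative means a stronger specific loss of the NR0B1 reporter.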

The strongest results of the screen are mostly left out here.
Sequences are the guide (antisense) strand, without overhang.

For UCCACUGUGAGACUUUUCG against ZNF563 the result was seed-corrected z-score 0.4286. UCGUCGUAGAAGUCAAUCG against RIPPLY3 read seed-corrected z-score -0.4054. ACCAUAAAGGGUGCGACCC against HIST4H4 gave seed-corrected z-score -0.0418. AAGAUAGACAGAUUCCUGA against OR14C36 read seed-corrected z-score -0.5246. Result for UGGUUGAGAAACUGGUUCU against KRTAP5-11 was seed-corrected z-score -0.4431.

For UUAGUGUGGAAGGAAAACU against RBP3 the result was seed-corrected z-score -0.469. UAAGUAUCUAGUUUGCAUG against LMX1A gave seed-corrected z-score -0.5677. AUCUGAACCAUUUCCGGAG against C12orf71 read seed-corrected z-score -0.2606. Result for UUCGUGAUUGGUAUGAGUC against KDM3A was seed-corrected z-score 0.7159. Result for ACACUUUGCAGAUAUAGGG against ZIC3 was seed-corrected z-score -0.5669.

UAUCAAACCUGACUGAUGC against SAXO1 read seed-corrected z-score -0.1461. UAUUCAUGCAACUGAUUCC against PPA1 gave seed-corrected z-score 0.3714. With UCAACUAUGAGGUCCUUAG against NUMB the assay gave seed-corrected z-score 0.1769. For UCUACUCACAUCCUGCUCC against SHPK the result was seed-corrected z-score 0.7369. Result for UUCCUGUCAAUGUAAAAGA against KNOP1 was seed-corrected z-score 0.4786.

With UUAUGACGAAGAAUUAGGG against AMIGO2 the assay gave seed-corrected z-score -0.4094. UACGAGGUGAGUAUGUUAC against USP47 gave seed-corrected z-score -0.2094. UCUAUACCAUAUCUCAUUC against F12 read seed-corrected z-score -0.04359. With UCUUUACUCAUCAUGUUGC against PANK1 the assay gave seed-corrected z-score -0.2227. AACUGUAACUGAUACAAUG against SPATA22 gave seed-corrected z-score 0.8615.

With UGCGUUUCCUCGAACAUCG against DPPA2 the assay gave seed-corrected z-score 0.4413. Result for UCAUCGUAUAUAUUAACGG against TPP2 was seed-corrected z-score -0.5966. UUUGAGCUUAUUCAUCAUC against WRBP1 read seed-corrected z-score 1.668. With UAGGUACCCAGUGAAUCUC against TNKS1BP1 the assay gave seed-corrected z-score 0.3228. ACCAUAGUAAGUCUCAUUG against SLC2A5 read seed-corrected z-score -1.115.

For UACUUGACCGGAGUGAAGG against FARSA the result was seed-corrected z-score 0.1852. For UUUUCCACAAUGAUUACAC against ZNF569 the result was seed-corrected z-score 0.568. With UCAGGUACUCGUUCGGCUG against CPNE7 the assay gave seed-corrected z-score -0.5082. For UGCGUGAAUCUGAAAAUGC against MNX1-AS1 the result was seed-corrected z-score -0.1345. Result for UUUGUUGCUAAGCACCAGC against RNASE10 was seed-corrected z-score -0.6236.

UCAGCUUCAGGGAGUAUGU against GBP1 read seed-corrected z-score -0.2618. UCUCGUUCUUGGGUAGCCG against CPLX3 read seed-corrected z-score -0.4067.

2 of the entries, repeated:

Result for UUAGUGUGGAAGGAAAACU against RBP3 was seed-corrected z-score -0.469.
Result for UUCCUGUCAAUGUAAAAGA against KNOP1 was seed-corrected z-score 0.4786.

Data taken from PubChem BioAssay AID1159506, deposited by NCATS (2015).